Record: PubChem BioAssay AID1508597 (Cure First, 2020)
This is a random part of the about 2,100 reagents, under one of the conditions tested. 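Calls flag viability under 80% in either arm, not effects specific to rucaparib; the reference for percent is not stated.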 A reagent listed more than once was tested more than once; the source does not tell the runs apart. Not stated in the record: the 100% reference.

Test: 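Genes whose silencing sensitises or protects ovarian cancer cells against rucaparib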 (primary screen)
Cells: human ovarian carcinoma lines grown from tumours: OCI-P5x (papillary serous) and OCI-C5x (clear cell)
Reagents: siRNA pool against human genes, 1.25 pmol siRNA per well
Timing: 72 h or 96 h, depending on the cell culture
Treatment: rucaparib 20 µM (about IC30) or vehicle, present until read-out
Rucaparib or vehicle: Rucaparib
Cell line: OCI-C5x (clear cell)
Measurement: 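ATP luminescence measured at 72 or 96 h according to the culture, then normalised and expressed as percent viability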
Scale: viability, normalised: higher = more viable cells remaining
Call rule: 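Active when normalised viability falls below 80 percent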
Meaning of the calls: active = viability under 80%; inactive = viability 80% or more

no.	Target gene	PubChem SID	technical replicate	viability, normalised (%)	outcome
1	MAPK3	SID405527518	1	45.4	active
2	MAPK3	SID405527518	2	53.4	active
3	MAPK3	SID405527518	3	52.5	active
4	MRGBP	SID405528061	1	45	active
5	MRGBP	SID405528061	2	42.6	active
6	MRGBP	SID405528061	3	40.1	active
7	DHX33	SID405528214	1	95.7	inactive
8	DHX33	SID405528214	2	80.7	inactive
9	DHX33	SID405528214	3	67.2	active
10	PRKCI	SID405526390	1	45.2	active
11	PRKCI	SID405526390	1	35.1	active
12	PRKCI	SID405526390	2	47.3	active
13	PRKCI	SID405526390	2	53.4	active
14	PRKCI	SID405526390	3	53.7	active
15	PRKCI	SID405526390	3	48.8	active
16	DDX53	SID405528198	1	47	active
17	DDX53	SID405528198	2	38.2	active
18	DDX53	SID405528198	3	36.4	active
19	NPR2	SID405527377	1	38.2	active
20	NPR2	SID405527377	2	46.2	active
21	NPR2	SID405527377	3	46.5	active
22	CDKL2	SID405527489	1	50.4	active
23	CDKL2	SID405527489	2	56.6	active
24	CDKL2	SID405527489	3	55	active
25	CRKL	SID405527428	1	36.1	active
26	CRKL	SID405527428	2	35.9	active
27	CRKL	SID405527428	3	66.3	active
28	CKM	SID405527371	1	59.9	active
29	CKM	SID405527371	2	69.2	active
30	CKM	SID405527371	3	61.8	active
31	CLDN16	SID405528129	1	34.1	active
32	CLDN16	SID405528129	2	40.6	active
33	CLDN16	SID405528129	3	24.7	active
34	ARSA	SID405527985	1	57.4	active
35	ARSA	SID405527985	2	41.9	active
36	ARSA	SID405527985	3	45	active
37	FBXO10	SID405526780	1	48.2	active
38	FBXO10	SID405526780	2	41.8	active
39	FBXO10	SID405526780	3	54.7	active
40	SMPD1	SID405526718	1	55.7	active
41	SMPD1	SID405526718	2	52.3	active
42	SMPD1	SID405526718	3	42.7	active
43	FRK	SID405527613	1	43	active
44	FRK	SID405527613	2	64.1	active
45	FRK	SID405527613	3	60.2	active

10 of these entries, set out differently:
CKM [SID405527371], technical replicate 2 | viability, normalised (%): 69.2; outcome: active
CKM [SID405527371], technical replicate 3 | viability, normalised (%): 61.8; outcome: active
CLDN16 [SID405528129], technical replicate 1 | viability, normalised (%): 34.1; outcome: active
CLDN16 [SID405528129], technical replicate 2 | viability, normalised (%): 40.6; outcome: active
CLDN16 [SID405528129], technical replicate 3 | viability, normalised (%): 24.7; outcome: active
ARSA [SID405527985], technical replicate 1 | viability, normalised (%): 57.4; outcome: active
ARSA [SID405527985], technical replicate 2 | viability, normalised (%): 41.9; outcome: active
ARSA [SID405527985], technical replicate 3 | viability, normalised (%): 45; outcome: active
FBXO10 [SID405526780], technical replicate 1 | viability, normalised (%): 48.2; outcome: active
FBXO10 [SID405526780], technical replicate 2 | viability, normalised (%): 41.8; outcome: active

The listing continues.
no.	Target gene	PubChem SID	technical replicate	viability, normalised (%)	outcome
46	DDX19B	SID405528175	1	52.9	active
47	DDX19B	SID405528175	2	64.7	active
48	DDX19B	SID405528175	3	47.7	active
49	PHF21B	SID405527152	1	53.1	active
50	PHF21B	SID405527152	2	49.9	active
51	PHF21B	SID405527152	3	39.9	active
52	POLH	SID405526322	1	48.2	active
53	POLH	SID405526322	1	73.5	active
54	POLH	SID405526322	2	73.7	active
55	POLH	SID405526322	2	60	active
56	POLH	SID405526322	3	75.3	active
57	POLH	SID405526322	3	53.8	active
58	MAD2L2	SID405528279	1	39.9	active
59	MAD2L2	SID405528279	2	38.9	active
60	MAD2L2	SID405528279	3	42	active
61	BTG2	SID405528252	1	50.6	active
62	BTG2	SID405528252	2	54	active
63	BTG2	SID405528252	3	49.8	active
64	TOPBP1	SID405528347	1	50.6	active
65	TOPBP1	SID405528347	2	66.7	active
66	TOPBP1	SID405528347	3	51.3	active
67	MYBL1	SID405527043	1	51.7	active
68	MYBL1	SID405527043	2	49.2	active
69	MYBL1	SID405527043	3	49.3	active
70	DDX18	SID405528173	1	53.2	active
71	DDX18	SID405528173	2	51.6	active
72	DDX18	SID405528173	3	42.2	active
73	POLQ	SID405527171	1	58.9	active
74	POLQ	SID405527171	1	58.5	active
75	POLQ	SID405527171	2	53.9	active
76	POLQ	SID405527171	2	62.2	active
77	POLQ	SID405527171	3	50.8	active
78	POLQ	SID405527171	3	41.3	active
